The text below walks through data of article PMC5794190.

Protein sequences, listed by entry. Tags and fused reporters are not part of them. Residues count along the entry.
UniProt P03186, residues 1-325: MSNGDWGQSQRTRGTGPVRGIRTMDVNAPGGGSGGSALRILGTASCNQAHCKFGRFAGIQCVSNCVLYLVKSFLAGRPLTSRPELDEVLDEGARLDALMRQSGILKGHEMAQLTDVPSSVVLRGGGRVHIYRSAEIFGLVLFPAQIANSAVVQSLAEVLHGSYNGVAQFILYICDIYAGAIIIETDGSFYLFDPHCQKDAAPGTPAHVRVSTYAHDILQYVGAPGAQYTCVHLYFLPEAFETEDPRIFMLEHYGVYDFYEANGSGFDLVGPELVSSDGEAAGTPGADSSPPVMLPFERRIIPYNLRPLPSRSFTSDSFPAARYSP
UniProt P31946: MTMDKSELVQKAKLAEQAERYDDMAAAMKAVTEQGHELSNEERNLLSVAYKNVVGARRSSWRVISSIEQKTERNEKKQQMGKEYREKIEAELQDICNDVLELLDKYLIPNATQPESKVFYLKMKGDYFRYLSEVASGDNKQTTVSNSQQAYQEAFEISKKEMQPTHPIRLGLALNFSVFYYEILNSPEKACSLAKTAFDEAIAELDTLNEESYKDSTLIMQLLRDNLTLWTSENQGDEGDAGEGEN
UniProt P62258: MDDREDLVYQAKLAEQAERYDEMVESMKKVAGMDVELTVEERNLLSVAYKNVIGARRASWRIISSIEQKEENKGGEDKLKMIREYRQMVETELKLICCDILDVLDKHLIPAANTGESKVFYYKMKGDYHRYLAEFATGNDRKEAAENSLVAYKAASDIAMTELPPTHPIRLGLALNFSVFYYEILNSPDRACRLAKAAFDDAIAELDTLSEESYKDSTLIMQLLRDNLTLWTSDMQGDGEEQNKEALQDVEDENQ
UniProt P63104: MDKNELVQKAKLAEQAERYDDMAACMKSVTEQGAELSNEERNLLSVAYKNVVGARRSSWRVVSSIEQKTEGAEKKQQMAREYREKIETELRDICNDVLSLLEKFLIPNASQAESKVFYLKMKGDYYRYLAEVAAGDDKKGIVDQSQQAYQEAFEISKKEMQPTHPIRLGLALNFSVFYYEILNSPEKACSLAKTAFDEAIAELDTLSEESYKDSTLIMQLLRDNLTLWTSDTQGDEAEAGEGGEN
UniProt Q14258: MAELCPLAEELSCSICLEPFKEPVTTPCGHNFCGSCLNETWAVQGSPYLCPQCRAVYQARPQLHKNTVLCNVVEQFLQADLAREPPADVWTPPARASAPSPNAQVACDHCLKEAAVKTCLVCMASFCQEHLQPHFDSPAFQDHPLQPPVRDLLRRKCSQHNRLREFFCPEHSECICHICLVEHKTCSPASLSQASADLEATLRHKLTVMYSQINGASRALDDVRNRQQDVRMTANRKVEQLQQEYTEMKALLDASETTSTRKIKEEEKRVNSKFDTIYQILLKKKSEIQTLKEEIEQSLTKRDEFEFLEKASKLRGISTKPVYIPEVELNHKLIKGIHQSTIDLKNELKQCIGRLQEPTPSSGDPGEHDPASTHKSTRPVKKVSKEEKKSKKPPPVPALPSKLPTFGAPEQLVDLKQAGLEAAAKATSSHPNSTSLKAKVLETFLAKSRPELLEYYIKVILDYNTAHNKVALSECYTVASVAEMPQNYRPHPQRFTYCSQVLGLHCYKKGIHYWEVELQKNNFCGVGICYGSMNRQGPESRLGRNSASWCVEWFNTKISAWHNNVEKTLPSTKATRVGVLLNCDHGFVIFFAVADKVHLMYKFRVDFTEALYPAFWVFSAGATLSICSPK

Results are given in words; binding and its absence hold for the method and conditions named. In cells and extracts the contact can be indirect. A yes stands for co-enrichment or nearness to the bait. Other partners may have been found.

To fix the notation:
B1: 14-3-3η (protein, UniProt Q04917 1-246)
chain: MGDREQLLQRARLAEQAERYDDMASAMKAVTELNEPLSNEDRNLLSVAYKNVVGARRSSWRVISSIEQKTMADGNEKKLEKVKAYREKIEKELETVCNDVLSLLDKFLIKNCNDFQYESKVFYLKMKGDYYRYLAEVASGEKKNSVVEASEAAYKEAFEISKEQMQPTHPIRLGLALNFSVFYYEIQNAPEQACLLAKQAFDDAIAELDTLNEDSYKDSTLIMQLLRDNLTLWTSDQQDEEAGEGN
B2: 14-3-3γ (protein, UniProt P61981 1-247)
chain: MVDREQLVQKARLAEQAERYDDMAAAMKNVTELNEPLSNEERNLLSVAYKNVVGARRSSWRVISSIEQKTSADGNEKKIEMVRAYREKIEKELEAVCQDVLSLLDNYLIKNCSETQYESKVFYLKMKGDYYRYLAEVATGEKRATVVESSEKAYSEAHEISKEHMQPTHPIRLGLALNYSVFYYEIQNAPEQACHLAKTAFDDAIAELDTLNEDSYKDSTLIMQLLRDNLTLWTSDQQDDDGGEGNN

One experiment addresses FLAG-BPLF1 (aa 1-325), catalytically active N-terminal domain of BPLF1 (Epstein-Barr virus) (UniProt P03186). In words: affinity purification with mass spectrometry; anti-FLAG agarose on 10 mg clarified lysate of transfected HeLa cells (NP-40 lysis buffer, 150 mM NaCl, pH 7.6; 4 h at 4°C), elution with FLAG peptide, SDS-PAGE, LC/MS/MS; hits absent from the FLAG-empty vector control; two independent experiments.
For the molecule 14-3-3β (from UniProt P31946 1-246), the binding result is reported as “binds”.
On the same count and under the same terms, the result for 14-3-3ε (from UniProt P62258 1-255) reads “binds”; that for 14-3-3ζ (from UniProt P63104 1-245), “binds”.
Turning to “EGFR (from UniProt P00533 25-1210) (receptor)”, the binding entry is “binds”.
On to “TRIM25 ubiquitin ligase (endogenous) (from UniProt Q14258 1-630)”, for which the binding result was “binds”.
On the same count and under the same terms, for B1 the value was “binds”; for B2, “binds”.

The target in a further experiment is FLAG-BPLF1C61A, catalytic mutant of the BPLF1 N-terminal domain (Epstein-Barr virus). Described as above.
With B1, the binding entry is on record as “binds”.
In the case of B2, the binding entry is “binds”.
